# Literature values, collected in patent US5756107A, “Formulations and methods for reducing skin irritation” (Cosmederm Technologies, priority 1994, dated 1998).
# Tested on: skin
# Settings: skin local anesthetics; cited from earlier work
compound,measurement,value
CCN(CC)CC(=O)Nc1c(C)cccc1C [Lidocaine],anesthetic side-effects (comparator),undesirable anesthetic side-effects
